Reference: PubChem BioAssay AID2685 (National Center for Advancing Translational Sciences (NCATS), 2010)
The other results are listed elsewhere or left out. These are further read-outs of the screen, such as a control signal, another cell line or another target. No call is given for them. Compounds called inactive in the main read-out are mostly missing here. Words in brackets tell the shape of the fitted curve; partial curves, single points and poor fits give uncertain potencies.

Test: qHTS Assay for Lipid Storage Modulators in Drosophila S3 Cells;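 on cell number change: cells counted by Cell Tracker Red CMTPX staining in the red channel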
Conditions: BODIPY lipid droplet fluorescence, 18-24 h; for cell number change: measured here: cell count max response, cells fed with added oleic acid
How it was run: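 Drosophila S3 cells loaded with oleic acid (400 uM, as added) and compounds at several concentrations; lipid droplets imaged by 488-nm laser-scanning cytometry, 500–530 nm intensity and object ratio to cell channel. Percent activity normalized to 20 uM Triacsin C.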

[1] = measured here: lipid fluorescence (Fed channel) AC50, cells fed with added oleic acid
[2] = measured here: cell number channel AC50, cells fed with added oleic acid

| SMILES | cell number change [%] | AC50 [1] | AC50 [2] |
| --- | --- | --- | --- |
| O=S(=O)(NC1CCN(S(=O)(=O)c2ccc3c(c2)OCCO3)C1)c1c(F)cccc1F (stereo unspecified) | -14 | 4.61 µM [falling, single point] |  |
| Cc1ccccc1C(=O)N1CCC(C(=O)Nc2ccc(S(=O)(=O)N3CCOCC3)cc2)CC1 | -12.8 | 23.1 µM [falling, partial curve, poor fit] |  |
| CCC(C)NC(=O)c1oc2ccc(S(=O)(=O)N3CCC4(CC3)OCCO4)cc2c1C (stereo unspecified) | 20.3 | 11.6 µM [rising, single point] |  |
| CN(CC(=O)NC1CCCCC1)S(=O)(=O)c1ccc(Br)s1 |  | 0.58 µM [falling, single point] |  |
| C(=N/Nc1nc(-c2ccccc2)cc(-c2ccccc2)n1)/c1cccnc1 | -27.8 |  |  |
| CN1CCN(c2ccc(-c3ccnn3C(=O)Nc3cccc(C(F)(F)F)c3)cc2)CC1 | -46.1 |  |  |
| COc1ccc(-c2noc(N3CCC(C(=O)NCCCN4CCCCC4)CC3)n2)cc1 | 4.03 | 29.1 µM [rising, single point] |  |
| CC(C)[C@H](NC(=O)c1ccccc1)C(=O)OCC(=O)NCCc1ccc(F)cc1 | 10 | 3.26 µM [rising, partial curve, poor fit] |  |
| CC(C)c1ccc(NC(=O)COC(=O)c2ccc(CN3CCCC3=O)cc2)cc1 | -51.5 | 1.16 µM [falling, full curve] | 0.651 µM [falling, full curve] |
| O=C(NC1CCS(=O)(=O)C1)c1c(NC(=O)C2COc3ccccc3O2)sc2c1CCCC2 (stereo unspecified) | 12.4 | 29.1 µM [rising, single point] |  |
| Cc1cc(NC(=O)c2cc(Cl)ccc2Cl)no1 | 1.3 | 0.206 µM [rising, full curve] |  |
| CC(OC(=O)C(NC(=O)c1ccco1)C(C)C)C(=O)Nc1ncc(Cl)cc1Cl (stereo unspecified) | -13.2 | 29.1 µM [falling, single point] |  |
| O=C(NNC(=O)c1c(O)c2ccccc2[nH]c1=O)c1ccccc1 | 5.56 | 8.2 µM [rising, partial curve] |  |
| O=C(c1cc(=O)c2ccccc2o1)N1CCCc2ccccc21 | 17.9 | 3.66 µM [rising, partial curve] |  |
| Cc1ccc(C(=O)N2CCN(c3ccc(NC(=O)c4cccnc4Cl)cc3)CC2)cc1 | -3.36 |  |  |
| COc1cc(C(=O)/C=C/Nc2ccc(NC(C)=O)cc2)cc(OC)c1OC | 12.2 |  | 6.51 µM [rising, single point] |
| CC(C)(C)c1ccc(C2C3=C(CCCC3=O)NC3=C2C(=O)c2ccccc23)cc1 (stereo unspecified) | -19.7 | 32.6 µM [falling, single point] |  |

As entered above.
cell number change [%] with `C(=N/Nc1nc(-c2ccccc2)cc(-c2ccccc2)n1)/c1cccnc1` reads -27.8
cell number change [%] with `COc1ccc(-c2noc(N3CCC(C(=O)NCCCN4CCCCC4)CC3)n2)cc1` reads 4.03
